EP3240566B1 (Development Center for Biotechnology, dated 2020)
These are yes or no findings as the source states them, for the method shown. Some entries that bind do so weakly or less than the wild type.

By UniProt entry, the sequences of proteins in these tests, tags left out.
UniProt P06733: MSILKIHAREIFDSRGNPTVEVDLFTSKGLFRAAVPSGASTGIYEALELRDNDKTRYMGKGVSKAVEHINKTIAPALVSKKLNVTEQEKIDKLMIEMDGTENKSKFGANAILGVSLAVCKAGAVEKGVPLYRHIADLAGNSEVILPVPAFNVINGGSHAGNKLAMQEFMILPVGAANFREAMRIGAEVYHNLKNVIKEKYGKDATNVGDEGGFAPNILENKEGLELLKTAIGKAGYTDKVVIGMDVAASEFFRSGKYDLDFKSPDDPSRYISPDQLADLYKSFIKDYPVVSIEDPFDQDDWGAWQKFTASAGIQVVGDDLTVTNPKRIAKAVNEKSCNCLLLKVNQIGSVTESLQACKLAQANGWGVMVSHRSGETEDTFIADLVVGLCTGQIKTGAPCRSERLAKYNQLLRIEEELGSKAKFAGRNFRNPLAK

Target: T1, human ENO1 protein (human, UniProt P06733 1-434)
T1 construct: also called ENOl; alpha-enolase
Assay: SPR, BIAcore 2000

B1: hum EN10 mAb IMGT (antibody, IgG1, V domains shown)
VH: QVQLVQSGAEVKKPGASVKVSCKASGYTFTSCVMNWVRQAPGQGLEWMGYINPYNDGTKYNEKFKGRVTMTTDTSTSTAYMELRSLRSDDTAVYYCAREGFYYGNFDNWGQGTLVTVSS
VL: DIQMTQSPSSLSASVGDRVTITCRASENIYSYLTWYQQKPGKAPKLLIYNAKTLPEGVPSRFSGSGSGTDFTLTISSLQPEDFATYYCQHHYGTPYTFGQGTKLEIKR
notes: also called humanized EN10 mAb IMGT; Hum EN10 IMGT
binding: binds
